In the assay the target is Flag-AID (mouse wild-type activation-induced cytidine deaminase with N-terminal Flag-tag) (mouse) (UniProt Q9WVE0). Put plainly: co-IP; anti-Flag immunoprecipitation (protein G agarose) from lysates of Phoenix cells transfected with Flag-AID or Flag-GFP; cells lysed in the presence of RNase inhibitors; Western blot with anti-ORF1 and anti-AID. On the technique in general: In western blotting, separated proteins are transferred to a membrane and probed.

Chains of the proteins cited; added tags and fusions are not shown.
UniProt Q9WVE0: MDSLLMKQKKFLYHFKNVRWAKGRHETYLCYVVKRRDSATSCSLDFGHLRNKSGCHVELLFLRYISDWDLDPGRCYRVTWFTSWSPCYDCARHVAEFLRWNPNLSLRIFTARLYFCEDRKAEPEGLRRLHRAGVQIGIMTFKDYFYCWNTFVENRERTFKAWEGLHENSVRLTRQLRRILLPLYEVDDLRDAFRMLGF
UniProt Q9UN81: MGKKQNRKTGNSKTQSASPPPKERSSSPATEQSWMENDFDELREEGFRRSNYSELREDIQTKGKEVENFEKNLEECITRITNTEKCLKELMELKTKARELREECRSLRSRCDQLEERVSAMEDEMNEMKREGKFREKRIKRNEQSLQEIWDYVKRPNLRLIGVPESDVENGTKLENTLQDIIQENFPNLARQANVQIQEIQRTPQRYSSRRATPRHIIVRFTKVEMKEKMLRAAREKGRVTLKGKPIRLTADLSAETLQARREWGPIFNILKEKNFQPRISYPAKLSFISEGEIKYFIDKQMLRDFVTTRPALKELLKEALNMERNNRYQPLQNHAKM

Results are given in words; binding and its absence hold for the method and conditions named. In cells and extracts the contact can be indirect. Some entries that bind do so weakly or less than the wild type.

In the case of “LINE-1 (L1) open reading frame 1 (ORF1) protein, endogenous human (from UniProt Q9UN81 1-338)”, the binding entry was “binds”.

The values above are taken from PMC3487726.
